According to PubChem BioAssay AID1347075 (National Center for Advancing Translational Sciences (NCATS), 2019):
The campaign covered roughly 400,000 compounds. About 5,500 (1.4%) were called active. Inconclusive means that the source gave no clear call. Such entries were picked first, then a sample of the others. Calls follow the shape of the dose curve; as a rule, active = well fitted cell-killing curve with a large enough effect; inconclusive = small, poorly fitted or top-dose-only effect, or effect the other way; inactive = flat fitted curve, though single readings scatter. A potency beside an inconclusive call is a rough fit, not a confirmed value.

assay: qHTS assay for MDR1-selective chemotherapeutics: Primary screen using the parental adenocarcinoma cell KB-3-1; conditions: KB-3-1 viability, CellTiter-Glo ATP luminescence, 72 h; activity change, negative = cytotoxic: at 46.1 µM (top of the series); also: nearly all actives have a fitted effect of over 60% in size
Outline: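 Screening of KB-3-1 cells (DMEM, 10% FBS, phenol-red free) ran from lowest to highest compound concentration; after 72 h at 37 °C viability was read luminescently and curves fitted.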
% is scaled to controls: 0 for no effect and ±100 for the full control effect; potency is read from the fitted curve at half-maximal effect.

Row | SMILES | Potency | activity change, negative = cytotoxic
1 | CCC(C)(C)n1nnnc1C(c1cccnc1)N1CCN(c2cccc(C(F)(F)F)c2)CC1 (centres undefined) | inconclusive: 23.1 µM [cytotoxic, single point] | –
2 | O=C(/C=C/c1ccco1)Nc1scc(-c2ccccc2)c1C(=O)O | inconclusive: 8.2 µM [cytotoxic, partial curve] | –
3 | CC(=O)c1ccc(N2CCN(C(=O)/C=C/c3ccc(S(=O)(=O)N4CCOCC4)cc3)CC2)cc1 | inconclusive: 18.4 µM [cytotoxic, single point] | –
4 | COc1ccc(NC(=O)Nc2cccc3c2O[C@H](CN(C)S(=O)(=O)c2ccc(OC)cc2)[C@@H](C)CN([C@H](C)CO)C3=O)cc1 | – | inactive: -0.715%
5 | COc1cc(/C=N/NC(=O)c2cc(-c3ccccc3Cl)nc3ccccc23)cc(OC)c1O | – | inactive: 19.1%
6 | COc1ccc2cc(S(=O)(=O)N3CCCC3)ccc2c1 | – | inactive: 4.06%
7 | CCN(Cc1nc2ccccc2c(=O)[nH]1)C(=O)c1cc2c(s1)CCCCC2 | – | inactive: 0%
8 | COc1ccccc1C(=O)NCc1ccccn1 | – | inactive: 1.02%
9 | Cn1c(=O)n(C)c2cc(NS(=O)(=O)c3ccc4c(c3)CCCC4)ccc21 | active: 18.4 µM | –
10 | O=C(NC1CCCCC1)c1ccc2snnc2c1 | inconclusive: 16.4 µM [cytotoxic, single point] | –
11 | COc1ccc(NC(=O)c2nnn(CC(=O)Nc3ccccc3OC)c2N)c(OC)c1 | inconclusive: 8.2 µM [rising, partial curve] | –
12 | COc1ccccc1NC(=O)c1nnn(Cc2ccccc2)c1NC(=O)C(F)(F)F | active: 18.4 µM | –
13 | CCOC(=O)C1CCCCN1S(=O)(=O)c1ccc2c(c1)CC(C)N2C(=O)C1CCC1 (centres undefined) | inconclusive: 23.1 µM [cytotoxic, partial curve, poor fit] | –
14 | COc1ccc(OC)c(/C=C/C(=O)Nc2ccc(OC)nc2)c1 | – | inconclusive: 18.8%
15 | Cc1cccc(Cc2c(C)nc3c(C(=O)NCc4ccco4)cnn3c2C)c1 | – | inactive: 0%
16 | CCN1CCN(C(c2cccc(Cl)c2)c2c(O)cc(C)n(CCOC)c2=O)CC1 (centres undefined) | – | inactive: 3.19%
17 | O=c1c2ccccc2nc(COc2ccccc2)n1/N=C/c1c[nH]c2ccccc12 | – | inactive: 0.223%
18 | COc1ccc([C@@]23Oc4cc(OC)cc(OC)c4[C@]2(O)[C@H](O)[C@H](C(=O)N(C)C)[C@H]3c2ccccc2)cc1 | inconclusive: 0.0146 µM [cytotoxic, full curve, poor fit] | –
19 | COCc1[nH][nH]c(=O)c1C=Nc1ccccc1 | inconclusive: 29.1 µM [cytotoxic, single point] | –
20 | COc1cc(/C=C2/CCCC(C(=O)C(F)(F)F)=C2O)ccc1O | – | inactive: -12.5%
21 | COc1ccc(-c2noc(CCCCC(=O)N3CCN(c4cc(C)ccc4C)CC3)n2)cc1 | inconclusive: 7.31 µM [cytotoxic, partial curve, poor fit] | –
22 | COc1ccc([C@H]2CC(=O)C=C(c3cc(OC)ccc3OC)C2)cc1 | active: 16.4 µM | –
23 | CCC(=O)c1ccc(OCC(=O)NC2(C#N)CCCCC2)cc1 | – | inactive: 4.63%

Row | SMILES | Potency | activity change, negative = cytotoxic
24 | Cc1noc(C)c1COC(=O)c1csc2c1CCC(C)C2 (centres undefined) | – | inactive: -4.91%
25 | CCN(CC)c1nc2ccccc2nc1C(C#N)C(=O)NCCCOC (centres undefined) | inconclusive: 29.1 µM [cytotoxic, single point] | –
26 | COc1ccc(CCNc2nnc(Sc3nnnn3-c3ccccc3)s2)cc1OC | active: 4.11 µM | –
27 | O=C(NCCOc1ccccc1)N1[C@H]2CC[C@@H]1C=C(c1ccc(F)cc1OCc1ccccc1)C2 | inconclusive: 29.1 µM [cytotoxic, single point] | –
28 | CCn1c(CNC(=O)Cc2ccc(OC)cc2)nnc1SCC(=O)NC1CCCCC1 | – | inactive: 20.5%
29 | Cc1ccc(C)c(CSc2nnc(-c3cccnc3)o2)c1 | – | inactive: 0.746%
30 | CCn1ncc(C2=NOC(C(=O)Nc3cccc(C(C)=O)c3)C2)c1C (centres undefined) | inconclusive: 23.1 µM [cytotoxic, partial curve, poor fit] | –
31 | C/C(=N\NC(=S)NC(C)C)c1ccc(C(C)(C)C)cc1 | inconclusive: 29.1 µM [cytotoxic, single point] | –
32 | CCN1CCC(O)(/C=C/c2ccc(C(C)C)cc2)C(C(=O)/C=C/c2ccc(C(C)C)cc2)C1 (centres undefined) | inconclusive: 29.1 µM [cytotoxic, single point] | –
33 | N#C/C(=C\c1ccc(O)c(O)c1)C(=O)Nc1ccccc1 | inconclusive: 32.6 µM [cytotoxic, single point] | –
34 | CN(C)c1ccc(CNC(=O)C2(C)Cc3c(-c4ccc5c(c4)OCO5)ccnc3O2)cc1 (centres undefined) | active: 7.31 µM | –
35 | CCCCCCCCCCCCCCCC[n+]1ccc(/C=C/c2c[nH]c3ccccc23)c2ccccc21 | inconclusive: 29.1 µM [cytotoxic, single point] | –
36 | Cc1nc2ccc(NC(=O)c3ccccc3)cc2c(=O)n1Cc1ccc(F)cc1 | inconclusive: 29.1 µM [cytotoxic, single point] | –
37 | CCOC(=O)C1(CCCc2ccccc2)CCN(C(=O)C2=C(C)OCCO2)CC1 | inconclusive: 18.4 µM [cytotoxic, partial curve, poor fit] | –
38 | CSc1nc(N)nc(C(C)C)n1 | inconclusive: 29.1 µM [rising, single point] | –
39 | CN=C1c2cc3cc(OC)ccc3n2CCN1Cc1ccccc1 | active: 8.2 µM | –
40 | CCc1ccc2oc(-c3cc(N)ccc3Cl)nc2c1 | – | inactive: 1.74%
41 | O=[N+]([O-])c1cc(-c2csc(NCCc3nc4cc(Cl)c(N5CCCCC5)cc4n3CCCO)n2)ccc1Cl | inconclusive: 16.4 µM [cytotoxic, single point] | –
42 | COc1ccc2oc(C(=O)NC3CCCCC3)c(C)c2c1 | inconclusive: 2.59 µM [cytotoxic, partial curve, poor fit] | –
43 | CN(C)CCCn1c(=O)n(Cc2ccccc2)c(=O)c2c3c(sc21)CCCCC3 | inconclusive: 29.1 µM [cytotoxic, single point] | –
44 | COc1cccc(-c2cnc3c(NC=O)cc(-c4ccc(O)c(OC)c4)cn23)c1 | inconclusive: 32.6 µM [cytotoxic, partial curve, poor fit] | –
45 | COc1ccc(Nc2ccncc2[N+](=O)[O-])cc1 | inconclusive: 23.1 µM [cytotoxic, single point] | –
46 | CC(=O)Nc1ccc(S(=O)(=O)N2CCSC2c2ccc(Cl)cc2)cc1 (centres undefined) | inconclusive: 29.1 µM [cytotoxic, partial curve, poor fit] | –

Four entries from above, in CSV form.
Row,SMILES,Potency,"activity change, negative = cytotoxic"
24,Cc1noc(C)c1COC(=O)c1csc2c1CCC(C)C2 (centres undefined),–,inactive: -4.91%
25,CCN(CC)c1nc2ccccc2nc1C(C#N)C(=O)NCCCOC (centres undefined),"inconclusive: 29.1 µM [cytotoxic, single point]",–
28,CCn1c(CNC(=O)Cc2ccc(OC)cc2)nnc1SCC(=O)NC1CCCCC1,–,inactive: 20.5%
29,Cc1ccc(C)c(CSc2nnc(-c3cccnc3)o2)c1,–,inactive: 0.746%

Additional structures

Row | SMILES | Potency | activity change, negative = cytotoxic
47 | Cc1ccc2sc(N(CCCN(C)C)C(=O)c3ccc(S(=O)(=O)N(C)C4CCCCC4)cc3)nc2c1C | active: 23.1 µM | –
48 | COc1ccc(N2CCN(C(CNC(=O)c3ccc(C)cc3)c3ccc4c(c3)OCO4)CC2)cc1 (centres undefined) | inconclusive: 23.1 µM [cytotoxic, single point] | –
49 | Cc1ccc(C)c(Cn2c(C)nc3c(sc(=S)n3-c3ccccc3)c2=O)c1 | – | inactive: -3.44%
50 | Cc1cc(Cl)c(OCCCNC2CCCC2)c(Br)c1 | – | inactive: 11.1%
51 | CN1C(=O)/C(=C/c2ccc(C(=O)NC3CCCC3)cc2)Oc2ccccc21 | inconclusive: 29.1 µM [cytotoxic, single point] | –
52 | O=C(c1ccco1)N1CCCC(c2nc3c(nnn3Cc3cccc(Cl)c3)c(=O)[nH]2)C1 (centres undefined) | inconclusive: 7.31 µM [cytotoxic, partial curve, poor fit] | –
53 | Cc1cccc(C(=O)Nc2ccccc2SCC(=O)Nc2ccc(C)c(Cl)c2)c1 | active: 11.6 µM | –
54 | Oc1ccc(-c2csc(-c3ccccc3)n2)cc1O | inconclusive: 20.6 µM [cytotoxic, partial curve, poor fit] | –
55 | N#CCCn1cc(/C=N/O)c(-c2ccc(-c3ccccc3)cc2)n1 | inconclusive: 20.6 µM [cytotoxic, single point] | –
56 | COc1ccc(CN(CCC(c2ccc(F)cc2)C2CCOC(C)(C)C2)C(=O)c2ccco2)cc1 (centres undefined) | inconclusive: 18.4 µM [cytotoxic, single point] | –
57 | COc1ccc(-c2cc(C(F)(F)F)nc(S(=O)(=O)CCC(=O)N3CCOCC3)n2)cc1 | inconclusive: 29.1 µM [cytotoxic, single point] | –
58 | COc1ccc(S(=O)(=O)NNC(=O)C2Cc3c(ccc4ccccc34)O2)cc1 (centres undefined) | inconclusive: 32.6 µM [cytotoxic, single point] | –
59 | Cc1cc2nc(C3CCN(Cc4nnnn4Cc4ccccc4)CC3)[nH]c2cc1C | inconclusive: 14.6 µM [cytotoxic, partial curve] | –
60 | COc1ccc2[nH]c3c(NCc4ccco4)ncnc3c2c1 | – | inconclusive: -84.3%
61 | O=C1CC(c2ccccc2)Cc2[nH]c(=O)c(-c3nc(-c4ccc(F)cc4)cs3)cc21 (centres undefined) | active: 4.61 µM | –
62 | COc1cc(CO)cc(Br)c1OCc1cccnc1 | inconclusive: 29.1 µM [rising, single point] | –
63 | CCOc1ccccc1C(=O)Nc1ccc(C(=O)c2ccccc2)cc1 | inconclusive: 29.1 µM [cytotoxic, single point] | –
64 | CCOC(=O)c1cnc2ccc(OCC)cc2c1N1CCN(c2cccc(Cl)c2)CC1 | inconclusive: 32.6 µM [cytotoxic, single point] | –
65 | COC(=O)c1nn(-c2ccccc2)c(Sc2ccc(Cl)cc2)c1/C=N/O | inconclusive: 29.1 µM [cytotoxic, single point] | –
66 | COCCNC(=O)/C(C#N)=C/c1cc(C)n(-c2ccc(C)cc2)c1C | inconclusive: 18.4 µM [cytotoxic, single point] | –
67 | O=C(CCS(=O)(=O)c1cc2c(cc1Cl)NC(=O)CO2)NCc1ccc(F)cc1 | – | inactive: -6.85%
68 | CCN(c1ccccc1)S(=O)(=O)c1ccc(C(=O)Nc2nnc(-c3ccco3)o2)cc1 | – | inactive: -3.2%
69 | O=C(CNC(=O)c1cc2ccccc2o1)NCc1cccs1 | inconclusive: 29.1 µM [cytotoxic, single point] | –
